In publication PMC8682746:
No constants are given. Whether binding was seen depends on the method and setting. In cells and extracts the contact can be indirect. A yes stands for co-enrichment or nearness to the bait. Other partners may have been found.

Chains of the proteins cited; added tags and fusions are not shown. Lines headed by an entry give the natural chain unless they say otherwise; changes in a name come on top.
UniProt Q38FI2: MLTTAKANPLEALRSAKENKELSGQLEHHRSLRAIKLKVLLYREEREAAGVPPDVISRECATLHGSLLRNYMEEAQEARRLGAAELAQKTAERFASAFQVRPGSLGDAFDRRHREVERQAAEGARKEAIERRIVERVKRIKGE
UniProt Q389W0: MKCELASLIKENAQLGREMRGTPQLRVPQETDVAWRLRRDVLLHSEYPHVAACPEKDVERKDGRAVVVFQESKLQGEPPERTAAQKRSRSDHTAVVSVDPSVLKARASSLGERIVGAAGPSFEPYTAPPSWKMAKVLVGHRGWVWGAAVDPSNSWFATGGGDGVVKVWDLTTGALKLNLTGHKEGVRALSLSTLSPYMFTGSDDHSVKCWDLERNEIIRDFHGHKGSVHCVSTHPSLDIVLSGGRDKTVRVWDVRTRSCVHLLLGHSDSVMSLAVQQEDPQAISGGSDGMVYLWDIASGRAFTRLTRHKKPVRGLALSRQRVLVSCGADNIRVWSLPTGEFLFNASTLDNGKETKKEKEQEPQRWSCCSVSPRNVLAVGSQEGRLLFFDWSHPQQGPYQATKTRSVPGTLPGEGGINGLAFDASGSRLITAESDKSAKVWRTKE
UniProt Q4GYY5: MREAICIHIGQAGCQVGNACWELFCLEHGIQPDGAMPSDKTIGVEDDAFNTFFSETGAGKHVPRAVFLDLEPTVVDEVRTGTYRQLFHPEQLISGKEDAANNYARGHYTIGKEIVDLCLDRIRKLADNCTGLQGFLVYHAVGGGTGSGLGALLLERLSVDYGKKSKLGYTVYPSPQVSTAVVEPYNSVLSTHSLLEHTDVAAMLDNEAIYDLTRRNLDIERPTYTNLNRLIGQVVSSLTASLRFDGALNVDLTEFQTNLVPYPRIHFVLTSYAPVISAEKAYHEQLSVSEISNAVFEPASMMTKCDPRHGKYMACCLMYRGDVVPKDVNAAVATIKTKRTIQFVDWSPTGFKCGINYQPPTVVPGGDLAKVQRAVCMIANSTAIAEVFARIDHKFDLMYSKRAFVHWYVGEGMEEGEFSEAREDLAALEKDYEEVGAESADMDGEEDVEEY
UniProt Q9GYZ7: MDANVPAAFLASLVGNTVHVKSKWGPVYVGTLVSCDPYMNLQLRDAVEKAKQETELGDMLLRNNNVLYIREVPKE
UniProt Q383K4: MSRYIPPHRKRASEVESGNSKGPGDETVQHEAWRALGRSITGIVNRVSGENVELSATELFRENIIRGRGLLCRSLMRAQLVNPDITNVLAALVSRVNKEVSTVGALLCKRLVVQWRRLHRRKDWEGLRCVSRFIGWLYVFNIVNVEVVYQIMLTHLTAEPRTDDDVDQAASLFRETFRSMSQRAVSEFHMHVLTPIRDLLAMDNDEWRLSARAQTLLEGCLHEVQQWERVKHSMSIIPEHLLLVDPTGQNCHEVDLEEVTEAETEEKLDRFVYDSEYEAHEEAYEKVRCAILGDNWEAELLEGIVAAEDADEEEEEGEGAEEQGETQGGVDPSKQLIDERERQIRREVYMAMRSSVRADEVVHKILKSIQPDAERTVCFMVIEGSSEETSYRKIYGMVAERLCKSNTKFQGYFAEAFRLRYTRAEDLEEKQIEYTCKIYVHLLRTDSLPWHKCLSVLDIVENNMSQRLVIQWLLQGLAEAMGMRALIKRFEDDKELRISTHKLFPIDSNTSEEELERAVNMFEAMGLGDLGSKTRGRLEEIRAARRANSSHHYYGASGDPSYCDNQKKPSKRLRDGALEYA
UniProt Q57W44: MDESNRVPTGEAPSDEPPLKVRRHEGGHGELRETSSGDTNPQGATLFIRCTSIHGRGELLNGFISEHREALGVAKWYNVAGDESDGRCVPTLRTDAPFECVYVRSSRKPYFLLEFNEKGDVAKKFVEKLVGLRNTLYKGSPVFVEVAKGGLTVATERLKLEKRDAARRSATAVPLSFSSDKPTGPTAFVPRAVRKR
UniProt Q585J6: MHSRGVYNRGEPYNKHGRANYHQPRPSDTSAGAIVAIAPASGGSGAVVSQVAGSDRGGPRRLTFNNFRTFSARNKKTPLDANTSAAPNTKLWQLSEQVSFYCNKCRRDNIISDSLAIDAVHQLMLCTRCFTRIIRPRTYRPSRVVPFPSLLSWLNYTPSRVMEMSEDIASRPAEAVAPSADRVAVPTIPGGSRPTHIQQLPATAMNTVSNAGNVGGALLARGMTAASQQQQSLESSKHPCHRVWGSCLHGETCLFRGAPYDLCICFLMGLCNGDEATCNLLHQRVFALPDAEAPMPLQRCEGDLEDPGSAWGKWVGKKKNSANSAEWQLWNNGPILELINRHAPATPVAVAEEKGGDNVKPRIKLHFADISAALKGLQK
UniProt Q582D6: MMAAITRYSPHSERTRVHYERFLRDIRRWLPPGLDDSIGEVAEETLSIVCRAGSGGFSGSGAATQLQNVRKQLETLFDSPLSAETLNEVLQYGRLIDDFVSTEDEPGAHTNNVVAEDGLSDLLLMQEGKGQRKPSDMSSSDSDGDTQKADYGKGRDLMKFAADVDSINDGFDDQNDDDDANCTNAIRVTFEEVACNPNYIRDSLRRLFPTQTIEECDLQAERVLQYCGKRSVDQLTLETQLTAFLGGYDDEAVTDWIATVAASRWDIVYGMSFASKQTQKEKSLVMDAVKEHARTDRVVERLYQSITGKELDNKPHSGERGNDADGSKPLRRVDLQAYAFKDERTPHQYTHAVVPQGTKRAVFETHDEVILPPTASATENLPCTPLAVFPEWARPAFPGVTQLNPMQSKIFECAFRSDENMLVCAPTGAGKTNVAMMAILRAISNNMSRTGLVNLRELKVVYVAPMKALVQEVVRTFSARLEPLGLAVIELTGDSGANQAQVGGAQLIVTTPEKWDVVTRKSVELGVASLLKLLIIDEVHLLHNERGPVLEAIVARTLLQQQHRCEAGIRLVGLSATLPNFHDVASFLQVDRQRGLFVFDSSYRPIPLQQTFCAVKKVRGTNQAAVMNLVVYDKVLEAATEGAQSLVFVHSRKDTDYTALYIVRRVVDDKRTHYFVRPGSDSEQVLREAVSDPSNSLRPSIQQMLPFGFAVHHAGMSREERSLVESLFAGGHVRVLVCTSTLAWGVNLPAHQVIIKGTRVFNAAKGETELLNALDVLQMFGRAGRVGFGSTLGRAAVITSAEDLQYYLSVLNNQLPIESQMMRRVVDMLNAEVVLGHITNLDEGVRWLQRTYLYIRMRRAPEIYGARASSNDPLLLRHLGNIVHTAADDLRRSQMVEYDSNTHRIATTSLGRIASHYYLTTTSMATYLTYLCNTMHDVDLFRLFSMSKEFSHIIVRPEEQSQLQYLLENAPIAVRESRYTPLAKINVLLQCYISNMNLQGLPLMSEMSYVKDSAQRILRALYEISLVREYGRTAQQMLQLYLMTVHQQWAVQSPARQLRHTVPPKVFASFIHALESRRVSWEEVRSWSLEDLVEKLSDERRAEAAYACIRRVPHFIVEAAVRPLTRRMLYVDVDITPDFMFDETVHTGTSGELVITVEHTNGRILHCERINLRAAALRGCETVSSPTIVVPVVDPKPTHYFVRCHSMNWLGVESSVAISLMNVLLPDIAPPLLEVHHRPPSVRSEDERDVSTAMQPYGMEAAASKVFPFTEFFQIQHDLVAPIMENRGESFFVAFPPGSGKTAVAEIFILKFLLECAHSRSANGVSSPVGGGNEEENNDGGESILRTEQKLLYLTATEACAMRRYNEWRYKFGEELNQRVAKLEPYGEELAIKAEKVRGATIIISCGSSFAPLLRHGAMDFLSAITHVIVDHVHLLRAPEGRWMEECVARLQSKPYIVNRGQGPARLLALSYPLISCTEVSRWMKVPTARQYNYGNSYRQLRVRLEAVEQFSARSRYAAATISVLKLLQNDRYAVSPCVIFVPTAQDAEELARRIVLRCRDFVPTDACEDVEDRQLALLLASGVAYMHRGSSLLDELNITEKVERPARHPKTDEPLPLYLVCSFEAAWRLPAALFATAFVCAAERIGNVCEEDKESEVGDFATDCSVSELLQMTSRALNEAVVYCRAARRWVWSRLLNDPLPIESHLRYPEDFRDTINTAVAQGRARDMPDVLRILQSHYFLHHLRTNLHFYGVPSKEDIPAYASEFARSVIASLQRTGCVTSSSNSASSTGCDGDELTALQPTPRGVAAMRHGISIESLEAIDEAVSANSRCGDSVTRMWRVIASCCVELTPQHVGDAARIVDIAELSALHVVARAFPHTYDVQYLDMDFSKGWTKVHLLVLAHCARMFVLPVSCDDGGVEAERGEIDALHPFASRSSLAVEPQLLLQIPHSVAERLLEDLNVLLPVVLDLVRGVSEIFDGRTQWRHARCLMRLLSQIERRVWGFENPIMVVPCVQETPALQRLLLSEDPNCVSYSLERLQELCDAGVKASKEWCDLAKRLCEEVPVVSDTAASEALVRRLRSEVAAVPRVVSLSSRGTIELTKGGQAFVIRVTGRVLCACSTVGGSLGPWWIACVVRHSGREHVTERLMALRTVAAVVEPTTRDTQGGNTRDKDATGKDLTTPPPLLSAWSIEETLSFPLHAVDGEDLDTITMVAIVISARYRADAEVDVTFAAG
UniProt Q9GYZ3: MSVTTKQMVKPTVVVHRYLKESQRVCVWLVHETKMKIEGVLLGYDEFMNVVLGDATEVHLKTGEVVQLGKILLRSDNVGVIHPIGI
UniProt Q389E7: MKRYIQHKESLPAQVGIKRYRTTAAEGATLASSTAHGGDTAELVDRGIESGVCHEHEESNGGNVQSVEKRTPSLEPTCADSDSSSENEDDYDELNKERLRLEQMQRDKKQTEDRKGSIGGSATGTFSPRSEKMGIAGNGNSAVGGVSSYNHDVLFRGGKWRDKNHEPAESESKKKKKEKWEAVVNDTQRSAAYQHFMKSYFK
UniProt D6XIG3: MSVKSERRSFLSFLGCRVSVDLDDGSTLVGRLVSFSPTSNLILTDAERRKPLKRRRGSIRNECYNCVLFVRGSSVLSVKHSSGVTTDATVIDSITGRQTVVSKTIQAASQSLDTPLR
UniProt Q57ZB8: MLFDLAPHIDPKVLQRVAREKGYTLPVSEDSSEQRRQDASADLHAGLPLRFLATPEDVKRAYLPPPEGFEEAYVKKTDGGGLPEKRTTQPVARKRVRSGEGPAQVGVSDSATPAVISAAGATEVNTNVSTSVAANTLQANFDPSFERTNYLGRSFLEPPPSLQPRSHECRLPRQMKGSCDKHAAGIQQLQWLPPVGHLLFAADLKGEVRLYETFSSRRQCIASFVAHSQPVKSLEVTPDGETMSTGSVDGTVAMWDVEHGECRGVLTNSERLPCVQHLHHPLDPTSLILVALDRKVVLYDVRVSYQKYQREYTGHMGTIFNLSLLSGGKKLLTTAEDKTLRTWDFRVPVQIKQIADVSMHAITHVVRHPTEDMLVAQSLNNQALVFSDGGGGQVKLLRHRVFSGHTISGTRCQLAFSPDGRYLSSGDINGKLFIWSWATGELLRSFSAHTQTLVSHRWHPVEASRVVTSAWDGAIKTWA
UniProt Q586C5: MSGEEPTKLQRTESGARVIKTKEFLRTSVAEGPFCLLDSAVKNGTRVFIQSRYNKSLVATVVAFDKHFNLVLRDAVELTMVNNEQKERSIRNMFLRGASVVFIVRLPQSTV
UniProt Q581X3: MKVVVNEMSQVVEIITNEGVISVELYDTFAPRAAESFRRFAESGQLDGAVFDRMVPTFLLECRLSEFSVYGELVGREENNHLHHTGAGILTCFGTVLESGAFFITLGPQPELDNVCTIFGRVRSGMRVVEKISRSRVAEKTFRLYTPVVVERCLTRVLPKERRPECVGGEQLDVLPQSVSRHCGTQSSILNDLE
UniProt Q585U7: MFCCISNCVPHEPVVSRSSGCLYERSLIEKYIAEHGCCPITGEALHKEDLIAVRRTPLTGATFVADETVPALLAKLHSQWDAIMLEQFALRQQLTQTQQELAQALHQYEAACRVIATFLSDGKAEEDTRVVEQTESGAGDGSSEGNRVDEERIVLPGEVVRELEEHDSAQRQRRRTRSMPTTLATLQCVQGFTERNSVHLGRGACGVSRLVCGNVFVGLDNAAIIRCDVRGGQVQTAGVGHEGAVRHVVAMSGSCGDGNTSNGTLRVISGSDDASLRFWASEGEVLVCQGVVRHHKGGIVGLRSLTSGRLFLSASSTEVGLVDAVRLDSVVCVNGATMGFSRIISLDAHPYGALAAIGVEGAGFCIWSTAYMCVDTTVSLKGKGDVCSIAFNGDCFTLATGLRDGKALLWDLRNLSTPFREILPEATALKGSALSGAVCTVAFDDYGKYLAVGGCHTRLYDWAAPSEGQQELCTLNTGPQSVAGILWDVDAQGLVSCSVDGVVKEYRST
UniProt Q9GYZ5: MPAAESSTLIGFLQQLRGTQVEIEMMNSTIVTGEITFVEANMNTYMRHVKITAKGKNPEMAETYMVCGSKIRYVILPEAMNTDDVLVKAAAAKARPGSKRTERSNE
UniProt Q581Y9: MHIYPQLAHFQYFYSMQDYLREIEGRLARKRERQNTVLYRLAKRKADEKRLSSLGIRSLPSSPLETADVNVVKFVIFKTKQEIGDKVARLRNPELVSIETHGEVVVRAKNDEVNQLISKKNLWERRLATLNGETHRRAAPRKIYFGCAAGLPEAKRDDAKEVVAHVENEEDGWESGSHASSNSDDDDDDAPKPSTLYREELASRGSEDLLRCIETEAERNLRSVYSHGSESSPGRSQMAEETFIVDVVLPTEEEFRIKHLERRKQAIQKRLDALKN

B1: LSm8 (protein, UniProt Q6QA14 1-129)
chain: MLSQYLRRRVSVVTVDGRYLVGVLHAADQLMNLVLTSCAERVFDDEAEDSTDPNDIKNNRNGTNGATPPGGEMREHSLGVLMIRGSDVVCVASVNTVEEAKLSRKLWRGRNLPVVERVARSATASVKGG
B2: LSm7 (protein, UniProt Q6QA15 1-92)
chain: MSAQQAHILKKKESILSLEPHLDRRVVVSLEDREVHGVLKGFDNNINLVLANAEIWNKDVRERQIGACVVRGGLLVSVSSGDTAILQQNPFQ
B3: LSm4 (protein, UniProt Q6QA18 1-127)
chain: MSVRKPITPLDVLRNCRAKVVSVELAGGETINGTVVRVDRAMNMVLKQCIRTSADGEAFWRSRESLIRGASVRNVRMDERAVIIADAQLREVTSKSKNKNRVKAKSNDKQQGERKATLSGEKRNRGK
B4: LSm3 (protein, UniProt Q6QA19 1-81)
chain: MDPFVFLLQSVDCPVRVHTVNRETTSGTLLAVDDHCNIMLKDWSTTGHLPSIEGAAPASLRFIRGEQIRTITLAPQSYQVN

Target: PRC5-PTP (Trypanosoma brucei) (UniProt Q386L5)
Experiment: affinity purification with mass spectrometry; PRC5-PTP tandem affinity purification from crude extract of TbPRC5-PTPee procyclic trypanosomes (IgG affinity, TEV protease release, anti-ProtC immunoaffinity, elution by calcium chelation); whole gel lane of the final eluate analysed by LC/MS/MS, two comprehensive analyses

binding, binds:
Cwc21 (from UniProt Q38FI2)
CDC5 (from UniProt Q57ZS5)
PRL1 (from UniProt Q389W0)
Alpha tubulin (from UniProt Q4GYY5)
Beta tubulin (from UniProt Q4GYY6)
SmF (from UniProt Q9GYZ7)
CWC22 (from UniProt Q383K4)
protein encoded by gene Tb927.5.990 (from UniProt Q57W44)
protein encoded by gene Tb927.4.3540 (from UniProt Q585J6)
BRR2 (U5-200K) (from UniProt Q582D6)
SmE (from UniProt Q9GYZ3)
SYF3 (from UniProt Q38A09)
AD002, CWC15 (from UniProt Q389E7)
PABP2 (from UniProt O96971)
PPIL3 (from UniProt Q38DM0)
SSm2-1 (Sm15K) (from UniProt D6XIG3)
SSm2.2 (U2-16.5K) (from UniProt Q38BA6)
PRP8 (from UniProt Q38DR4)
PRP17 (from UniProt Q57ZB8)
SSm4 (from UniProt D6XJG9)
SLU7 (from UniProt Q57ZX8)
SmD2 (from UniProt Q586C5)
Cactin (from UniProt Q383B9)
PPIL1 (from UniProt Q581X3)
PRP19 (from UniProt Q585U7)
SPF27 (from UniProt Q382C2)
SmD1 (from UniProt Q9GYZ5)
ISY1 (from UniProt Q581Y9)
protein encoded by gene Tb927.5.2910 (from UniProt Q57ZW7)
SmB (from UniProt Q586Q6)
B1
B2
B3
B4
